Among the data in the supplement of paper PMC10849652 are log2 fold change values, retold here.

Amino acid sequences for entries named in this document (tags omitted). A change or cut given only in a name is not applied to a line headed by its entry.
UniProt Q13286: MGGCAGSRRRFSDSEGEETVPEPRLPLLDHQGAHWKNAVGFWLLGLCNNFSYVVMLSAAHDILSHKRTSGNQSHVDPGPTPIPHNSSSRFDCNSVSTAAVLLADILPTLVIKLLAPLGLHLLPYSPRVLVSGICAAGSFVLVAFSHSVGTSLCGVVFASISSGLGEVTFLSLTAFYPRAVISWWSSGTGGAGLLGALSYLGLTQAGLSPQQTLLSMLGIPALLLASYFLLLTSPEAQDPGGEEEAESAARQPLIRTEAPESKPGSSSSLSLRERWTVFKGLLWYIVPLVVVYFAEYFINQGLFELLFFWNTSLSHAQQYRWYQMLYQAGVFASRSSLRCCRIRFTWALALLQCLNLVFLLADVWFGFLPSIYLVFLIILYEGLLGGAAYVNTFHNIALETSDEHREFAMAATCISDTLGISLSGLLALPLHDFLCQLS
UniProt Q9Y2V7: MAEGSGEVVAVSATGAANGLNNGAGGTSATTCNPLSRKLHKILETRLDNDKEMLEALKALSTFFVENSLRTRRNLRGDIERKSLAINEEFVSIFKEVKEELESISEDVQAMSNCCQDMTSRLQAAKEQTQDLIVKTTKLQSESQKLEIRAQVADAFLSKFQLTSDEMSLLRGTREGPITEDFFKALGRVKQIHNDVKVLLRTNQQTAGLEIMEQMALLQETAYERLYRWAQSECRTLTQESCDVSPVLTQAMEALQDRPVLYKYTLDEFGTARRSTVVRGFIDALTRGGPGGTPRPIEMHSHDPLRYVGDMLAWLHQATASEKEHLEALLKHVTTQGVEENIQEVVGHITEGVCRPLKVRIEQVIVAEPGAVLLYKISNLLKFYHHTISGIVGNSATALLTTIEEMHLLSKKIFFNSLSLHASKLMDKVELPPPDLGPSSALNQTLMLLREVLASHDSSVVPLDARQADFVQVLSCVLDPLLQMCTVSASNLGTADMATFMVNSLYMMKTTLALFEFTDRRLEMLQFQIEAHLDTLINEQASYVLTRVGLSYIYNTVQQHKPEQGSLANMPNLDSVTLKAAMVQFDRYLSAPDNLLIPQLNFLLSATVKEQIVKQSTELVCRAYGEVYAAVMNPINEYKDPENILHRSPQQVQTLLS
UniProt O75122: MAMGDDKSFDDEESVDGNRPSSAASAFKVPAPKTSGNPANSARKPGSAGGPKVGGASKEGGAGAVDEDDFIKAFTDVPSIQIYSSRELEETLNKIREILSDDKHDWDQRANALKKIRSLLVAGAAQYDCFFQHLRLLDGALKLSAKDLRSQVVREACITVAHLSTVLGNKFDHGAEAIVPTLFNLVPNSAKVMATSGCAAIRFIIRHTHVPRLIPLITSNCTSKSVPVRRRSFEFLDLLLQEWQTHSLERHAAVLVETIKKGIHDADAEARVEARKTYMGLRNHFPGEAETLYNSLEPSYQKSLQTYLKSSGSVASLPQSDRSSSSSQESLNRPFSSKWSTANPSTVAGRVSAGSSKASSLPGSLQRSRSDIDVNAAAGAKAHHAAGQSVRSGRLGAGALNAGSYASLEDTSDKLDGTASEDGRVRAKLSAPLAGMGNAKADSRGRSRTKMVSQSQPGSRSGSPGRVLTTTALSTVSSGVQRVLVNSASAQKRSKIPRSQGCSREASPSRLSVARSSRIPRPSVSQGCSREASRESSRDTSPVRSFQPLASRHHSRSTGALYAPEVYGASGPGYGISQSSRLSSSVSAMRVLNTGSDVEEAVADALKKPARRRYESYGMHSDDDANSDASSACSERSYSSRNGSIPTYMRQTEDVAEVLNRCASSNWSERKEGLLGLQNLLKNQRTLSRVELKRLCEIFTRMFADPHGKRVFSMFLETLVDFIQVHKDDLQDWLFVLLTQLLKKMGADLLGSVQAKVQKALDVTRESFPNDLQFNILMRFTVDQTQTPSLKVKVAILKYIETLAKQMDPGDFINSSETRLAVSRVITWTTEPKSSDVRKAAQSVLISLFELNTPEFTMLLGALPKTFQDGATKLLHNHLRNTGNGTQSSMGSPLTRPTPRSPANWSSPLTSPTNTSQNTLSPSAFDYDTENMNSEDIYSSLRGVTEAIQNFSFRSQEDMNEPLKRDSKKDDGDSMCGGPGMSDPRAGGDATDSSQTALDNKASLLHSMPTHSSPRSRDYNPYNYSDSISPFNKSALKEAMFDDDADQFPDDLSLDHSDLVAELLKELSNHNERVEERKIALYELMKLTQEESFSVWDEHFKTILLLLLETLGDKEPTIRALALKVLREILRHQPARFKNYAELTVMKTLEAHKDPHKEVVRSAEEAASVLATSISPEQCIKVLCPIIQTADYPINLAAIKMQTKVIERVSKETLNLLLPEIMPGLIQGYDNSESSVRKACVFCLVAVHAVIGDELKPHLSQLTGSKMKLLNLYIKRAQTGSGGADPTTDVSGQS
UniProt O95628: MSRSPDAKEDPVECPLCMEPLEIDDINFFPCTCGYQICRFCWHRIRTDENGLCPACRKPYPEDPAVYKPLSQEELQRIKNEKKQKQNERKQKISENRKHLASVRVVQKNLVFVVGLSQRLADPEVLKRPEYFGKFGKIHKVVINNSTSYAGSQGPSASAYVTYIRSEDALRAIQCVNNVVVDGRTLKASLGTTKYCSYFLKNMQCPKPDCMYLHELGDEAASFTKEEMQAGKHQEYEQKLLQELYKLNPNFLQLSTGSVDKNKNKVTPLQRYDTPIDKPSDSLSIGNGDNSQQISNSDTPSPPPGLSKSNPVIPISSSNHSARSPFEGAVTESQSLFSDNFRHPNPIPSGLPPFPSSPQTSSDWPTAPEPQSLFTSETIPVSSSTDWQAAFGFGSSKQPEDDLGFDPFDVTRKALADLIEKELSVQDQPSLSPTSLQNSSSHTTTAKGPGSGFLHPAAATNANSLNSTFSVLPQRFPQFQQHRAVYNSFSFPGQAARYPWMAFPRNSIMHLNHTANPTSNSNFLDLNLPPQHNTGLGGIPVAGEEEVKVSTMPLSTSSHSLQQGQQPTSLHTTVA
UniProt Q96F85: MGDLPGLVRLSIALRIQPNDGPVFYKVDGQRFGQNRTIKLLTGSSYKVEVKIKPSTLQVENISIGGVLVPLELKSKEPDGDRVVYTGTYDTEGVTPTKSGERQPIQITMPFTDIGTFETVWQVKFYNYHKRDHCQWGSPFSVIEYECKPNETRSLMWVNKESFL
UniProt P33552, whole entry, looked up: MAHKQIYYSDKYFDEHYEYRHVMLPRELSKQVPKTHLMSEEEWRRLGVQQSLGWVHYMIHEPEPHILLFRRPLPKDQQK
UniProt Q8NCH0: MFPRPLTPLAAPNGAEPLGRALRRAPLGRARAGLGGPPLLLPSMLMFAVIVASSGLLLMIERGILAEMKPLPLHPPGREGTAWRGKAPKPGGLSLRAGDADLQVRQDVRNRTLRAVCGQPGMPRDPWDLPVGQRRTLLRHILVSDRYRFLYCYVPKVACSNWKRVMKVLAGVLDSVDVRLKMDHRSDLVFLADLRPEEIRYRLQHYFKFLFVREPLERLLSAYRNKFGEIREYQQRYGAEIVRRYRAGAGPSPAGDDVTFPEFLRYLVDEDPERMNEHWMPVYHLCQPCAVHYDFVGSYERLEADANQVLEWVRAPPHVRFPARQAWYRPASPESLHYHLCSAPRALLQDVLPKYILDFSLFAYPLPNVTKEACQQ
UniProt P83436: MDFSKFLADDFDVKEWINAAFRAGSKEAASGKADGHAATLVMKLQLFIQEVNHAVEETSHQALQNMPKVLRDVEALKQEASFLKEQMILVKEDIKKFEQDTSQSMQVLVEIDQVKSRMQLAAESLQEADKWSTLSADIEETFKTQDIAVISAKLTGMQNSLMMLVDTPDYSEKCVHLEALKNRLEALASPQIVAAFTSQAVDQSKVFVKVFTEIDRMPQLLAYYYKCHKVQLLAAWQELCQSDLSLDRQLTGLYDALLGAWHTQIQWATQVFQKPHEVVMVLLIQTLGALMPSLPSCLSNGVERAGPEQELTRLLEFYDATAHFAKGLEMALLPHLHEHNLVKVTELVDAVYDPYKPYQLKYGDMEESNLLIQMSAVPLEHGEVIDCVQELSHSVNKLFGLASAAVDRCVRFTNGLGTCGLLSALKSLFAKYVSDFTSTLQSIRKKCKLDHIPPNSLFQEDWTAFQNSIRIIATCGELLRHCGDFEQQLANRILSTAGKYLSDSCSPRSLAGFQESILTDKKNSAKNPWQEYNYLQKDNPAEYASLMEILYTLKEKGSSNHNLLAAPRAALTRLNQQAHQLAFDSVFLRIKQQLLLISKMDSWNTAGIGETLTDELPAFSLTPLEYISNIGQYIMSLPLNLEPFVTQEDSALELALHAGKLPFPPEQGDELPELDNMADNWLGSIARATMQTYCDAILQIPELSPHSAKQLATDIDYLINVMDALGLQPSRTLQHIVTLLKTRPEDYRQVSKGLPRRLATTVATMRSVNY
UniProt P56277: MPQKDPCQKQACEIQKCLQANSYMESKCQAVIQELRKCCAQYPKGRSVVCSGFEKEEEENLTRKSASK
UniProt Q14011: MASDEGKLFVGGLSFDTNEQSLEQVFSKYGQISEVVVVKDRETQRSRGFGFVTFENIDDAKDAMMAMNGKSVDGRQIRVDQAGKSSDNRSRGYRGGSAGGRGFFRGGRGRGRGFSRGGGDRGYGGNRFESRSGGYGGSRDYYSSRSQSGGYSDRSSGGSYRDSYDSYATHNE
UniProt Q8IZR5: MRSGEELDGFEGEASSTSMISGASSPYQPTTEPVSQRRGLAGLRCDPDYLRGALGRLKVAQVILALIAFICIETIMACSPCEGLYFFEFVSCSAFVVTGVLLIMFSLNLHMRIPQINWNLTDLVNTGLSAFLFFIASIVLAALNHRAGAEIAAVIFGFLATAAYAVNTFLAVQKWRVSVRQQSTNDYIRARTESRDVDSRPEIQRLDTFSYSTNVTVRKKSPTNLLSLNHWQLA
UniProt G5E9Z2: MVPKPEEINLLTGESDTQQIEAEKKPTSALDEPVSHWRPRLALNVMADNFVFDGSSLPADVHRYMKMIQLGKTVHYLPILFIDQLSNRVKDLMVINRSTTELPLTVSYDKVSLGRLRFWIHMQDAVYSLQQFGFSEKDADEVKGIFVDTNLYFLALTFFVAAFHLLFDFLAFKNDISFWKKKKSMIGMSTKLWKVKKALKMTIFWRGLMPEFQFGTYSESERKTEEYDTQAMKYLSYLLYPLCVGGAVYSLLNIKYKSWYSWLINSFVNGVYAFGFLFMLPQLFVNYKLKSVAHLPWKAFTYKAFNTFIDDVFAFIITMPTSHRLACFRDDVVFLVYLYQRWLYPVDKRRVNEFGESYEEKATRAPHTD
UniProt Q92989: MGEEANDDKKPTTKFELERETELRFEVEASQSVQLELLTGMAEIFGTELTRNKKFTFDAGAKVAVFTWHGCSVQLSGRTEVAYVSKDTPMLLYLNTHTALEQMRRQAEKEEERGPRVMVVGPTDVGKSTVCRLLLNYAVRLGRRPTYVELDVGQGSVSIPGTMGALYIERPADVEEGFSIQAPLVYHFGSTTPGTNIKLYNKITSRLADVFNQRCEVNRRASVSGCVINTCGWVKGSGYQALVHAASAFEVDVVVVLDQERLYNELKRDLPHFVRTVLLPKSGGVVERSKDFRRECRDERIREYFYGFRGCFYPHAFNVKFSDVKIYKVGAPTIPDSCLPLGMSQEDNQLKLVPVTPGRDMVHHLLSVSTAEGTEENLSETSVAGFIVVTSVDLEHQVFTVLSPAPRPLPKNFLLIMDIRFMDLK
UniProt Q96JB2: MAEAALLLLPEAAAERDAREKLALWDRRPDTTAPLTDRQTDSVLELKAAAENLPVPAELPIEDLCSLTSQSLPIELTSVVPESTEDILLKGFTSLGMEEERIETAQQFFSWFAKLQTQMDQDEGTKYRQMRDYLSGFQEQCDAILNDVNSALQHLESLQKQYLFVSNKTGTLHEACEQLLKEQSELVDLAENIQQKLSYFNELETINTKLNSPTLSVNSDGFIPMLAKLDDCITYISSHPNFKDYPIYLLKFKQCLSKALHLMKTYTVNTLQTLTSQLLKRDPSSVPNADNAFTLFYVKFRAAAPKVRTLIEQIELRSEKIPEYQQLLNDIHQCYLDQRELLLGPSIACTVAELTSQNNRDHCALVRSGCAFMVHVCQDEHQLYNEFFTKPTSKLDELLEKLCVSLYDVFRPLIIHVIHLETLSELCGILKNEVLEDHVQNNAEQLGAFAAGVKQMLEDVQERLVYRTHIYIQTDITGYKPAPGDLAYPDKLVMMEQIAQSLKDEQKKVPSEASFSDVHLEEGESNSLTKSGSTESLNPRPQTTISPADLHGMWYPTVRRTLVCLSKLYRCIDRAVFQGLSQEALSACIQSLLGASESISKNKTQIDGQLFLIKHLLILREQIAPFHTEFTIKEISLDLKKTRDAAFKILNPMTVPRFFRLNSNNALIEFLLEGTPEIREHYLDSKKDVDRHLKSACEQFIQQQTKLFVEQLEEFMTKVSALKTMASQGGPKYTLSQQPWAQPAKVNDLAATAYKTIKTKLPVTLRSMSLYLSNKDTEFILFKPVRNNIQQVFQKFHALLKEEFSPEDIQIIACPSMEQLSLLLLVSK
UniProt Q86WW8: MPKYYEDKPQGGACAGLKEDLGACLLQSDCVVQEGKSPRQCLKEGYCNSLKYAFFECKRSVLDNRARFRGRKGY

The list shows a part of the results.

Compound in the first test: CCCS(=O)(=O)Nc1ccc(F)c(C(=O)c2c[nH]c3ncc(Cl)cc23)c1F
In words: log2 fold change, soluble protein after heating vs DMSO (PISA); higher = thermal stabilisation; K562 cells, 10 uM, 30 min; active = over 0.2 and 3.5 SD of the protein, either way, in both replicates (recomputed). The method in brief:
(§1)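 K562 cells at 2×10^6 cells/mL were treated for 30 min with 10 μM compound, and aliquots were heated for 3 min over 48°C-58°C before pooling. Extraction used PBS with 0.5% NP-40 at 4°C, and soluble protein was the supernatant after 21,000xg for 90 min, measured by TMTpro 16plex LC-MS/MS with channel sums equalised. Thermal stability values, relative to control samples and from duplicates, are log2 fold changes.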
As for CLN3 (UniProt Q13286), the log2 fold change was inactive: -0.119.
The same measure, in the same setting: as for COG6 (UniProt Q9Y2V7), the figure is inactive: -0.025; as for CLSTN3 isoform 2 (UniProt Q9BQT9), inactive: -0.081; as for CLASP2 (UniProt O75122), inactive: -0.068.
For CNOT4 isoform 9 (UniProt O95628), the log2 fold change is inactive: 0.006.
As for CLEC2B (UniProt Q92478), the log2 fold change is inactive: 0.042.
On to CNRIP1 (UniProt Q96F85), for which the log2 fold change was inactive: -0.075.
Still for that read-out and setting: as for CLCNKB (UniProt P51801), the figure is inactive: -0.122; as for CKS2 (UniProt P33552), inactive: 0.039.
For the target CHST14 (UniProt Q8NCH0), the log2 fold change was inactive: -0.019.
Take COG7 (UniProt P83436): the log2 fold change was inactive: 0.128.
As for CMC4 (UniProt P56277), the log2 fold change is inactive: -0.02.
On the same count and under the same terms, as for CLYBL (UniProt Q8N0X4), the figure is inactive: 0.411; as for CIRBP (UniProt Q14011), inactive: 0.048.
On to CLEC11A (UniProt Q9Y240), for which the log2 fold change is inactive: -0.004.

Compound in another test: CCCc1cc(C)[nH]c(=O)c1CNC(=O)c1cc(-c2ccnc(N3CCN(C)CC3)c2)cc2c1cnn2C(C)C
The description is as above. An outline of the steps:
as §1
Turning to CIP2A (UniProt Q8TCG1), the log2 fold change was inactive: 0.058.
As for CLN3 (UniProt Q13286), the log2 fold change was inactive: -0.09.
Regarding COG6 (UniProt Q9Y2V7), the log2 fold change was inactive: -0.187.
As for CLASP2 (UniProt O75122), the log2 fold change was inactive: -0.017.
Consider CNOT4 isoform 9 (UniProt O95628), for which the log2 fold change is inactive: -0.171.
Turning to CNRIP1 (UniProt Q96F85), the log2 fold change is inactive: -0.087.
On the same count and under the same terms, under CKS2 (UniProt P33552) stands inactive: -0.077.
Still for that read-out and setting: under CHUK (UniProt O15111) stands inactive: 0.072; under CLDN12 (UniProt P56749), inactive: 0.048; under CMTM4 (UniProt Q8IZR5), inactive: 0.069.
In the case of CLPTM1L (UniProt G5E9Z2), the log2 fold change is inactive: -0.035.
For the target CNBP isoform 4 (UniProt P62633), the log2 fold change was inactive: -0.018.
For CHST14 (UniProt Q8NCH0), the log2 fold change was inactive: -0.061.
Same read-out and setting: as for COG7 (UniProt P83436), the figure is inactive: 0.253.
Take CIRBP (UniProt Q14011): the log2 fold change was inactive: -0.031.
With CLP1 (UniProt Q92989), the log2 fold change is inactive: 0.027.
Same read-out and setting: under COG3 (UniProt Q96JB2) stands inactive: 0.231; under COG8 (UniProt Q96MW5), inactive: 0.297; under CLINT1 (UniProt Q14677), inactive: -0.017.
Still for that read-out and setting: under CHTOP isoform 3 (UniProt Q9Y3Y2) stands inactive: 0.154.

Compound in another test: CCN(CC)Cc1ccc2cc(COC(=O)Nc3ccc(C(=O)NO)cc3)ccc2c1 [givinostat]
Described as above. An outline of the steps:
as §1
With CLN3 (UniProt Q13286), the log2 fold change is inactive: 0.02.
On the same count and under the same terms, under COG6 (UniProt Q9Y2V7) stands inactive: 0.198; under CLASP2 (UniProt O75122), inactive: 0.031.
With CNOT4 isoform 9 (UniProt O95628), the log2 fold change is inactive: 0.053.
Same read-out and setting: as for CNEP1R1 isoform 2 (UniProt Q8N9A8), the figure is inactive: -0.064; as for CNRIP1 (UniProt Q96F85), inactive: 0.106.
COA5 (UniProt Q86WW8): the log2 fold change was inactive: -0.002.
As for CLCNKB (UniProt P51801), the log2 fold change is inactive: 0.028.
CHST14 (UniProt Q8NCH0): the log2 fold change is inactive: 0.145.
In the case of CLDN6 (UniProt P56747), the log2 fold change is inactive: 0.169.
As to COG7 (UniProt P83436), the log2 fold change was inactive: 0.494.
Still for that read-out and setting: under CMC4 (UniProt P56277) stands inactive: -0.018; under CLYBL (UniProt Q8N0X4), inactive: -0.054; under CLCN5 isoform 2 (UniProt P51795), inactive: 0.022.
With CLP1 (UniProt Q92989), the log2 fold change is inactive: 0.134.
Turning to CLASRP (UniProt Q8N2M8), the log2 fold change was inactive: 0.013.
For COG3 (UniProt Q96JB2), the log2 fold change is inactive: 0.316.
On the same count and under the same terms, under CHTOP isoform 3 (UniProt Q9Y3Y2) stands inactive: 0.078; under COG5 isoform 2 (UniProt Q9UP83), inactive: -0.049.
As for CLEC11A (UniProt Q9Y240), the log2 fold change is inactive: -0.03.

Compound in a further test: CCN(CCCOc1ccc2c(Nc3cc(CC(=O)Nc4cccc(F)c4)[nH]n3)ncnc2c1)CCOP(=O)(O)O [barasertib]
Described as above. The method in brief: as §1
Regarding CLN3 (UniProt Q13286), the log2 fold change was inactive: -0.027.
On to CLASP2 (UniProt O75122), for which the log2 fold change is inactive: 0.031.
In the case of CNOT4 isoform 9 (UniProt O95628), the log2 fold change was inactive: 0.015.
As to CKS2 (UniProt P33552), the log2 fold change is inactive: 0.045.
CLDN12 (UniProt P56749): the log2 fold change was inactive: 0.092.
In the case of CMTM4 (UniProt Q8IZR5), the log2 fold change was inactive: 0.078.
For the target CLPTM1L (UniProt G5E9Z2), the log2 fold change is inactive: -0.076.
Still for that read-out and setting: under CNBP isoform 4 (UniProt P62633) stands inactive: -0.019.
CHST14 (UniProt Q8NCH0): the log2 fold change was inactive: -0.005.
On to CIRBP (UniProt Q14011), for which the log2 fold change is inactive: -0.245.
Same read-out and setting: under CLP1 (UniProt Q92989) stands inactive: 0.038; under CLASRP (UniProt Q8N2M8), inactive: 0.004; under COG3 (UniProt Q96JB2), inactive: -0.082.
As for CLINT1 (UniProt Q14677), the log2 fold change is inactive: 0.017.
